{
  "source": "paper PMC7819943",
  "about": "“Rice protein-binding microarrays: a tool to detect cis-acting elements near promoter regions in rice”",
  "note": "The list shows a part of the results.",
  "data": [
    {"target": "T1, OsSMF1 (Oryza sativa, UniProt Q6ZLB0 1-436)", "T1 sequence": "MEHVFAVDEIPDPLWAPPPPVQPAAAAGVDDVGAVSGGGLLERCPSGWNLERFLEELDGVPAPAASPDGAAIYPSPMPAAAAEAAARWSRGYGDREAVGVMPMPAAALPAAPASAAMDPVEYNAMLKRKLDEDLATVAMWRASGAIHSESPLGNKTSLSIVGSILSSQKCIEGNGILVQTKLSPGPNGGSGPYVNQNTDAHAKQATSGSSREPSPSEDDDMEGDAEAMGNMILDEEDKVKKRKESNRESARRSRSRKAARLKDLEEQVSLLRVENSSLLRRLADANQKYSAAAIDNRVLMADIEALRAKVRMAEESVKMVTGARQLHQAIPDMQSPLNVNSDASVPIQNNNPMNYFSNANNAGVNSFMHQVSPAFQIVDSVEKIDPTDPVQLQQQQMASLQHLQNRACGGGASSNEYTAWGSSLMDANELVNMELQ", "assay": "protein-binding microarray (RPBM); PBS, 2% BSA, 51.3 ng/ul salmon testes DNA, 50 uM zinc acetate, 200 nM TF, 25 C, 1 h; high values mean tight binding", "conditions": "protein: recombinant; tags: N-terminal polyhistidine and DsRed monomer fusion (pET32a); chain copies: 2; label: CyDye5-dUTP incorporated in the synthesized complementary strand; 3' TTTTT single-stranded linker to array surface; dsDNA, one strand shown", "summary_of_the_method": "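Transcription factors were made in E. coli BL21-CodonPlus as N-terminal fusions to a polyhistidine tag and DsRed, then purified on Ni–NTA. After primer extension with Cy5-dUTP and blocking with 2% BSA, a custom Agilent array was exposed for 1 h at 25 °C to 200 nM protein in PBS, 2% BSA, salmon testes DNA and 50 µM zinc acetate. Washed arrays were scanned on an Axon 4000B, and the binding signal is per-feature fluorescence intensity in arbitrary units.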", "values": [
      {"sequence": "TGCTGCGCCTGTGGCTGCCATAAGTATATCGCACTCCACGCGGAGTCACCTAGTGCAG", "binding signal": "38300 fluorescence intensity (a.u.)"},
      {"sequence": "CGCCGGAGCTGGTCGTGCTGATGCCTGATGGCCTCACACCCGGAGTCACCTAGTGCAG", "binding signal": "3330 fluorescence intensity (a.u.)"},
      {"sequence": "TGGAGGAGGTGGTGGTGGTGGTAGTAGTAGTACGCCGGGGCGGAGTCACCTAGTGCAG", "binding signal": "3620 fluorescence intensity (a.u.)"},
      {"sequence": "GGATGGTGGCAGCGGGACTGAAAGAGTCACGGTGGTGGAGCGGAGTCACCTAGTGCAG", "binding signal": "3580 fluorescence intensity (a.u.)"},
      {"sequence": "GTTAATGATATGTCATGTTTGCATGATATTTAAAATACTCCGGAGTCACCTAGTGCAG", "binding signal": "3500 fluorescence intensity (a.u.)"},
      {"sequence": "CACAGTGCACGCACGCAGCTACAAAGATGTCGTACGACCACGGAGTCACCTAGTGCAG", "binding signal": "3260 fluorescence intensity (a.u.)"},
      {"sequence": "ATAACAGCAGGGCGCAAAGCTACACACACGTACGCACACGCGGAGTCACCTAGTGCAG", "binding signal": "4850 fluorescence intensity (a.u.)"},
      {"sequence": "TTTTCGATATATAATTGCCACGTAAGCGTCACGTCAATGCCGGAGTCACCTAGTGCAG", "binding signal": "34300 fluorescence intensity (a.u.)"},
      {"sequence": "TAGTAATGTCGTTAAGAAATACCAACAACAATGCAGCAACCGGAGTCACCTAGTGCAG", "binding signal": "3200 fluorescence intensity (a.u.)"},
      {"sequence": "GCCCACATCCATCCCGTCACCCGCCCACTCGCCGTCGCACCGGAGTCACCTAGTGCAG", "binding signal": "3490 fluorescence intensity (a.u.)"},
      {"sequence": "ATTTACCCCTCTAAACTACGATACCGGACATTTGACACCCCGGAGTCACCTAGTGCAG", "binding signal": "3360 fluorescence intensity (a.u.)"},
      {"sequence": "GCGGCTAGTCCAAACCATACTTTGTTTTCTTGCAGGACCCCGGAGTCACCTAGTGCAG", "binding signal": "33700 fluorescence intensity (a.u.)"},
      {"sequence": "GTGGCCATGCTGATGACACTCCACACTCCTCGACTTTCGTCGGAGTCACCTAGTGCAG", "binding signal": "3400 fluorescence intensity (a.u.)"},
      {"sequence": "TTTTGCTAACGTGACAGGTCCACCACATCAGCACGTGGAACGGAGTCACCTAGTGCAG", "binding signal": "7760 fluorescence intensity (a.u.)"},
      {"sequence": "ATTAATCATACGCTAATGACTCATCTTATTTTACGTATCTCGGAGTCACCTAGTGCAG", "binding signal": "8350 fluorescence intensity (a.u.)"},
      {"sequence": "ATAGTGGTTTTGGCTGACGTGGCGCCTACGTGGCTAATTTCGGAGTCACCTAGTGCAG", "binding signal": "19600 fluorescence intensity (a.u.)"},
      {"sequence": "CCTTTCCTTCTCCCGCATCTCTCCACGCGAGCGGCCTCTGCGGAGTCACCTAGTGCAG", "binding signal": "3420 fluorescence intensity (a.u.)"},
      {"sequence": "GTTGAGCTCTTCTCACCTGCTTGCCGCGGCGTGGTTGCCGCGGAGTCACCTAGTGCAG", "binding signal": "19400 fluorescence intensity (a.u.)"},
      {"sequence": "AGCAGTGAGCAGTGCCACGTGGGCAGCCCAACACATAAGCCGGAGTCACCTAGTGCAG", "binding signal": "11900 fluorescence intensity (a.u.)"},
      {"sequence": "AGAGGCCCATAACCGCATACCCCTAGGGCCACGCTATGCTCGGAGTCACCTAGTGCAG", "binding signal": "3510 fluorescence intensity (a.u.)"},
      {"sequence": "GCCCTGTTTATTTTGTACTACTACCGATCGGGCACGGATCCGGAGTCACCTAGTGCAG", "binding signal": "23900 fluorescence intensity (a.u.)"},
      {"sequence": "GAGCATTTAGAAGAGGTGGCAAAGTTAACATACTTTTGTCCGGAGTCACCTAGTGCAG", "binding signal": "3930 fluorescence intensity (a.u.)"},
      {"sequence": "GCCGTAATGCTTCTGAGTTCTGACTCCTGCTGCGCTCTCACGGAGTCACCTAGTGCAG", "binding signal": "4100 fluorescence intensity (a.u.)"},
      {"sequence": "CTGACGATGACTAGTGTGGACGACGAGGGTGTCGATGTGCCGGAGTCACCTAGTGCAG", "binding signal": "3340 fluorescence intensity (a.u.)"},
      {"sequence": "TATTCTTCTGATTCATCCTGTTGCTGTCTGTCAAGTGGGACGGAGTCACCTAGTGCAG", "binding signal": "3220 fluorescence intensity (a.u.)"},
      {"sequence": "CCTGTCAAATTTGCCTAACCTTAGACGTGGCAAACTGTGGCGGAGTCACCTAGTGCAG", "binding signal": "3670 fluorescence intensity (a.u.)"},
      {"sequence": "AGAATTTCAACCGGAGTGACATCACATAATTACATATGTGCGGAGTCACCTAGTGCAG", "binding signal": "5940 fluorescence intensity (a.u.)"},
      {"sequence": "CAGTTTGTGCTGCCACTTTATTTGTACACGCCAGTGACTGCGGAGTCACCTAGTGCAG", "binding signal": "6360 fluorescence intensity (a.u.)"},
      {"sequence": "GATGTTGATTAGGATGTGACGTGCATACGTGTAGTAGGGTCGGAGTCACCTAGTGCAG", "binding signal": "13900 fluorescence intensity (a.u.)"},
      {"sequence": "TACTCTACGTGGCGTGGCAGTCGTCCTCCTCCCTCCCACGCGGAGTCACCTAGTGCAG", "binding signal": "8390 fluorescence intensity (a.u.)"},
      {"sequence": "AGCTAGAACGCACAGACTTTAGGCTTTAGGTACGATGATGCGGAGTCACCTAGTGCAG", "binding signal": "43300 fluorescence intensity (a.u.)"},
      {"sequence": "CTTTTAGAGCACCCATAATGGTAAAATAAGATGCTCTCTACGGAGTCACCTAGTGCAG", "binding signal": "30100 fluorescence intensity (a.u.)"},
      {"sequence": "TTATCACCAACGCGGAGTCACCCGAGCCCACATCGCGTGACGGAGTCACCTAGTGCAG", "binding signal": "4780 fluorescence intensity (a.u.)"},
      {"sequence": "TATTGGGCAAGAGTACGTCGTTTGCCACCTTGGCCGCCACCGGAGTCACCTAGTGCAG", "binding signal": "3500 fluorescence intensity (a.u.)"},
      {"sequence": "ATTACTGGCTCGGCTCGATGACACCTATATTATAGGTGTCCGGAGTCACCTAGTGCAG", "binding signal": "3550 fluorescence intensity (a.u.)"},
      {"sequence": "GGTCTTCATATGACGTGGCACTGACGTGGCGCTTATGTGGCGGAGTCACCTAGTGCAG", "binding signal": "32100 fluorescence intensity (a.u.)"},
      {"sequence": "TCCCTGCGAAATTGTACACATCAACACAACATAAGGTCGACGGAGTCACCTAGTGCAG", "binding signal": "3700 fluorescence intensity (a.u.)"},
      {"sequence": "AAGCAGCTCGCTCGAGTCGAGCTCCCCTCTCCGCCCGGGGCGGAGTCACCTAGTGCAG", "binding signal": "3920 fluorescence intensity (a.u.)"},
      {"sequence": "AAGGCTTTTCGTAAGTAGTGCGTGCGTGCAGTTACAGAGCCGGAGTCACCTAGTGCAG", "binding signal": "3290 fluorescence intensity (a.u.)"},
      {"sequence": "GGAATATAAGCCGCCAAGCTCCATGTCGTCAGTGCTGATGCGGAGTCACCTAGTGCAG", "binding signal": "5020 fluorescence intensity (a.u.)"},
      {"sequence": "GACTTGTCCATGCATGCATGCATGACTTGTGTTCAGCCACCGGAGTCACCTAGTGCAG", "binding signal": "3700 fluorescence intensity (a.u.)"},
      {"sequence": "AGGGATGTTTCTGTAATTTCACACAAAGAAGAGGGTACAACGGAGTCACCTAGTGCAG", "binding signal": "3220 fluorescence intensity (a.u.)"}
    ]}
  ]
}
